B1: GST-SCIMP-T1 (entire intracellular region of murine SCIMP, amino acids 29-150) [mouse] / His-TLR4-TIR (cytoplasmic TIR domain of mouse TLR4, amino acids 670-835) [mouse] (parent complex)
chain 1: CVCRWQLRQGRNWEIAKPSKQDGRDEEKMYENVLNSSPGQLPALPPRGSPFPGDLAPQEAPRQPSAWYSSVKKVRNKKVFAISGSTEPENDYDDVEIPATTETQHSKTTPFWQAEVGLHSSF
chain 2: SIYDAFVIYSSQNEDWVRNELVKNLEEGVPRFHLCLHYRDFIPGVAIAANIIQEGFHKSRKVIVVVSRHFIQSRWCIFEYEIAQTWQFLSSRSGIIFIVLEKVEKSLLRQQVELYRLLSRNTYLEWEDNPLGRHIFWRRLKNALLDGKASNPEQTAEEEQETATWT

The variants in the assay derive from B1. Description: GST pull-down, immunoblot densitometry; parent: 100; read off a plot. A general note: Immunoblotting shows a protein as a band on a membrane.
On to chain 1 Y68F, for which the percent of parent was approximately 140%.

Consider chain 1 S69A, for which the percent of parent was approximately 100%.

chain 1 S70A: the percent of parent was approximately 79%.

Regarding chain 1 V71A, the percent of parent is approximately 120%.

As to chain 1 W67A, the percent of parent was approximately 16%.
